Assay results: publication PMC4863740
These are yes or no findings as the source states them, for the method shown. Binding seen in cells or lysates may run through a third protein. Some binding calls cover weakened binding; strength is not graded here. For part of these data: Where a sequence is shown, tags or fusion partners need not be part of it. Values belong to the binder of their own block, whether it stands above or below them.

How the values were obtained:
[1] = target: T1, NANOG (endogenous) (mouse (endogenous in ESCs)) (UniProt Q80Z64); test: co-IP; endogenous proteins from wild-type ESC nuclear extracts, Western blot; Benzonase and ethidium bromide added where indicated
T1 sequence: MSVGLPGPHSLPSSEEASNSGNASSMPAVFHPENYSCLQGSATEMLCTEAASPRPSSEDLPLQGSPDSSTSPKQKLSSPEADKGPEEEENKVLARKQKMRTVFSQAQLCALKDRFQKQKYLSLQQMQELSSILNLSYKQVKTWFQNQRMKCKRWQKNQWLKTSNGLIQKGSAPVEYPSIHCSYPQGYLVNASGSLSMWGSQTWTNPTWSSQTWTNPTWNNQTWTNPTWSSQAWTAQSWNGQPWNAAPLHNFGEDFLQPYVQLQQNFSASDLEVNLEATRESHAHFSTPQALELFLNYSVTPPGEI

2xFlag-Nanog = target: T2, 2xFlag-Nanog (UniProt Q80Z64); test: co-IP; endogenous coimmunoprecipitation in 2xFlag-Nanog-EpiSCs; data not shown
T2 sequence: T1 sequence

recombinant NANOG = target: T3, recombinant NANOG (UniProt Q80Z64); test: co-IP; recombinant NANOG and recombinant SALL1, analyzed by Western blot
T3 sequence: T1 sequence

binding [1]: binds
binding (2xFlag-Nanog): binds
B1: SALL1 (protein, UniProt Q9ER74 1-1322)
chain: MSRRKQAKPQHFQSDPEVASLPRRDGDTEKGQPSRPTKSKDAHVCGRCCAEFFELSDLLLHKKSCTKNQLVLIVNESPASPAKTFPPGPSLNDPDDQMKDAANKADQEDCSDLSEPKGLDREESMEVEVPVATTTTTTTGGSGGSGGSTLSGVTNITTPSCHSGCSSGTSAITTSLPQLGDLTTLGNFSVINSNVIIENLQSTKVAVAQFSQEARCGGASGGKLLISTLMEQLLALQQQQIHQLQLIEQIRHQILLLASQSADLPAAPSIPSQGTLRTSANPLTTLSSHLSQQLAVAAGLAQSLASQSANISGVKQLPHVQLPQSSSGTSIVPPSGGTSPNMSIVTAAVPTPSSEKVASNAGASHVSSPAVSASSSPAFAISSLLSPESNPLLPQPTPANAVFPTPLPNIATTAEDLNSLSALAQQRKSKPPNVTAFEAKSTSDEAFFKHKCRFCAKVFGSDSALQIHLRSHTGERPFKCNICGNRFSTKGNLKVHFQRHKEKYPHIQMNPYPVPEHLDNVPTSTGIPYGMSIPSEKPVTSWLDTKPVLPTLTTSVGLPLPPTLPSLTPFIKTEEPAPIPISHSAASPQGSVKSDSGAPDLATRNPSGVPEEVEGSAVPPFGGKGEESNMASSAVPTAGNSTLNSPVADGGPGGTTFTNPLLPLMSEQFKAKFPFGGLLDSAQASETSKLQQLVENIDKKATDPNECIICHRVLSCQSALKMHYRTHTGERPFKCKICGRAFTTKGNLKTHYSVHRAMPPLRVQHSCPICQKKFTNAVVLQQHIRMHMGGQIPNTPVPDNYPESMESDTGSFDEKNFDDLDNFSDENMEECPEGSIPDTPKSADASQDSLSSSPLPLEMSSIAALENQMKMINAGLAEQLQASLKSVENGSMEGDVLTNDSSSVGGDMESQSAGSPAISESTSSMQALSPSNSTQEFHKSPGMEEKPQRVGPGEFANGLSPTPVNGGALDLTSSHAEKIIKEDSLGILFPFRDRGKFKNTACDICGKTFACQSALDIHYRSHTKERPFICTVCNRGFSTKGNLKQHMLTHQMRDLPSQLFEPSSNLGPNQNSAVIPANSLSSLIKTEVNGFVHVSPQDSKDAPTSHVPQGPLSSSATSPVLLPALPRRTPKQHYCNTCGKTFSSSSALQIHERTHTGEKPFACTICGRAFTTKGNLKVHMGTHMWNSTPARRGRRLSVDGPMTFLGGNPVKFPEMFQKDLAARSGSGDPSSFWNQYTAALSNGLAMKANEISVIQNGGIPPIPGSLGSGSSPISGLTGNVEKLGNSEPSAPLAGLEKMASSENGTNFRFTRFVEDSKEIVTS

binding (recombinant NANOG): binds
B2: recombinant SALL1 (protein, UniProt Q9ER74 1-1322)
chain: B1 chain
